Data from US20150344535A1, “NEUROTROPHIN-TYROSINE KINASE RECEPTOR SIGNALING” (THE UNIVERSITY OF QUEENSLAND, priority 2012, published 2015).

What was measured:
TrkA [1] = assay: pull-down with biotinylated peptide, Western blot
EGF receptor = assay: pull-down with biotinylated peptide from transfected HEK293 lysate, Western blot
TrkA [2] = assay: as above

KRWNSCKQNKQGANSRPVNQTPPPEGEKL (amino terminus labelled with biotin via a six-carbon spacer) [biotinylated c29 peptide]
binding (TrkA [1]): binds | binding (EGF receptor): no binding | binding (TrkA [2]): binds

Results are given in words; binding and its absence hold for the method and conditions named. In cells and extracts the contact can be indirect. For part of these data: A result given as binding can be weak or reduced; the word gives no strength.
